# Values quoted from earlier work, collected in US20180105561A1, “ANALOGS OF SODIUM CHANNEL PEPTIDE TOXIN” (priority 2010, published 2018).
# Chains of the proteins cited; added tags and fusions are not shown.
# UniProt Q9Y5Y9, whole entry, looked up: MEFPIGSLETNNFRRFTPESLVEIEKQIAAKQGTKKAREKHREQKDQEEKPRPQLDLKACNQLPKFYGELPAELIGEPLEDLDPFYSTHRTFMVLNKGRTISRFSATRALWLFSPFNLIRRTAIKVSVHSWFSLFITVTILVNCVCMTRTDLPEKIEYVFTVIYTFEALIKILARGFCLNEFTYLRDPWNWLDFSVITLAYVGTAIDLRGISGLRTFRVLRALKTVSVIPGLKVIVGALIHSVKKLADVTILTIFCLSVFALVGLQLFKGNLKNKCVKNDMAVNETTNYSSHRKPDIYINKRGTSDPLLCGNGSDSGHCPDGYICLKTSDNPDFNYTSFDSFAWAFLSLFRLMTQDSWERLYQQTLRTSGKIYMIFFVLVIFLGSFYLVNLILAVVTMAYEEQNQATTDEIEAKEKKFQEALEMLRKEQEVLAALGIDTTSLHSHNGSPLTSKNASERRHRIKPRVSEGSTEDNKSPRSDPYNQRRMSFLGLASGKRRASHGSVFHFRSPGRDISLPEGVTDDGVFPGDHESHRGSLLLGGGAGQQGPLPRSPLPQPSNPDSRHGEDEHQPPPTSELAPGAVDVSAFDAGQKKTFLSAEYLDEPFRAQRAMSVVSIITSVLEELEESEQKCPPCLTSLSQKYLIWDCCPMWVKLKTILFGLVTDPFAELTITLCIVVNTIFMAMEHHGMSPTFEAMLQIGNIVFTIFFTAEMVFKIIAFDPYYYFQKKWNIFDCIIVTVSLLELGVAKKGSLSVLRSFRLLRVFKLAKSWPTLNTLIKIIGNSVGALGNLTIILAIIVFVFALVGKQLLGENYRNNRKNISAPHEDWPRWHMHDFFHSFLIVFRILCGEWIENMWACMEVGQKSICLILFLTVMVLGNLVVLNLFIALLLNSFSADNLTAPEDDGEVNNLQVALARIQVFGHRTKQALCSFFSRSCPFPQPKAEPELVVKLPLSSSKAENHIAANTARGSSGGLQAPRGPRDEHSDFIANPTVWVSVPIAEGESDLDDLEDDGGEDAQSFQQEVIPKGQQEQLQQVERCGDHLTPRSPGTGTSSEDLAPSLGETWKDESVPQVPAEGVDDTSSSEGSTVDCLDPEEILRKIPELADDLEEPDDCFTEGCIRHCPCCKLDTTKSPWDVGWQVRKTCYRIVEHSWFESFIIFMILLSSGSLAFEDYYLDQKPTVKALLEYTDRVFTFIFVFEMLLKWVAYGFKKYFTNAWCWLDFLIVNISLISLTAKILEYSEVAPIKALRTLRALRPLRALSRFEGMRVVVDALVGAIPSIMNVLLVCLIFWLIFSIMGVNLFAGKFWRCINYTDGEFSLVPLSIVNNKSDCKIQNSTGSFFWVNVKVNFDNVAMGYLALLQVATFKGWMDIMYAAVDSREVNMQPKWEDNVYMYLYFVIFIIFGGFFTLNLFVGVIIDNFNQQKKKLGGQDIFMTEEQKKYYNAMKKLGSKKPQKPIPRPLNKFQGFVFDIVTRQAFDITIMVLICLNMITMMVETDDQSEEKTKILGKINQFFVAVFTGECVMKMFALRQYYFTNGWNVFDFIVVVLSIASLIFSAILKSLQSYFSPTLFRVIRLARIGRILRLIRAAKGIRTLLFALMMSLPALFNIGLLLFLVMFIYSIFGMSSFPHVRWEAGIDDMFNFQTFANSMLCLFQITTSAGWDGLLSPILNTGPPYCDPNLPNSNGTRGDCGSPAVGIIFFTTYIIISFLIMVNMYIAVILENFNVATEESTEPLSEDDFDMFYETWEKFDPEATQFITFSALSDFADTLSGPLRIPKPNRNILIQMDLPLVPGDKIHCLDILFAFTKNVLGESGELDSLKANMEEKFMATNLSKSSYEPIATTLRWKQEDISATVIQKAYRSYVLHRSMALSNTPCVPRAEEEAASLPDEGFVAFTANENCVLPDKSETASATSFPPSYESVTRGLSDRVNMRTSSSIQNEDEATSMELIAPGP
# Biological target: Nav1.8 (Homo sapiens, UniProt Q9Y5Y9)
# Details: read-out: TTX IC50; cited from earlier work
compound,measurement,value
"NC1=N[C@H](O)[C@H]2[C@H]3O[C@]4(O)O[C@@H]([C@@H](O)[C@@]2(N1)[C@@H]4O)[C@]3(O)CO [TTX, tetrodotoxin]",IC50,50 µM
